Data taken from article PMC7819943, “Rice protein-binding microarrays: a tool to detect cis-acting elements near promoter regions in rice”.
Some of the results follow.

The chains behind the UniProt entries cited, without tags or fusion partners.
UniProt Q0JBA9, entry or part of it: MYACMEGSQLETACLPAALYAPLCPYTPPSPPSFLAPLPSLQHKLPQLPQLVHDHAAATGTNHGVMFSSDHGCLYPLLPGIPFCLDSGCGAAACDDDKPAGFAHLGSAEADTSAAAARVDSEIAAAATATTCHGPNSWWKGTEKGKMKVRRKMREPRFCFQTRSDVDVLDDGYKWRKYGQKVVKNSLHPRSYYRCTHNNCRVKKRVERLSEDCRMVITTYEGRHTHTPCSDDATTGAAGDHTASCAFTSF

What follows are sequences tested against OsWRKY34 (Oryza sativa, UniProt Q0JBA9 1-250) (assay: protein-binding microarray (RPBM); PBS, 2% BSA, 51.3 ng/ul salmon testes DNA, 50 uM zinc acetate, 200 nM TF, 25 C, 1 h; high values mean tight binding). Conditions: protein: recombinant; tags: N-terminal polyhistidine and DsRed monomer fusion (pET32a); label: CyDye5-dUTP incorporated in the synthesized complementary strand; 3' TTTTT single-stranded linker to array surface; dsDNA, one strand shown.
In short: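 The binding signal is fluorescence intensity per array feature (arbitrary units). Readings came from an Axon 4000B scanner after a washed, 2% BSA-blocked, double-stranded custom Agilent array had been incubated for 1 h at 25 °C with 200 nM protein and 50 µM zinc acetate. The protein was a Ni–NTA-purified transcription factor fused N-terminally to polyhistidine and DsRed, expressed in E. coli BL21-CodonPlus.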

Row | Sequence | binding signal
1 | CACCGTCGCAACTATATTTGTTATTTTTGTTACAACTTATCGGAGTCACCTAGTGCAG | 11800 fluorescence intensity (a.u.)
2 | CGTGCCGTCACATTAAAATGCTCGTCATTGTTTGGTTTTGCGGAGTCACCTAGTGCAG | 8320 fluorescence intensity (a.u.)
3 | TGGCTTCCACTTAGGTTAACATGGTATCAGCACACAGTTACGGAGTCACCTAGTGCAG | 9080 fluorescence intensity (a.u.)
4 | ATCTTTGCCAAAATTTTTCTACTAGTATAATACTATCTCCCGGAGTCACCTAGTGCAG | 8420 fluorescence intensity (a.u.)
5 | TGTTGAAATTGTTTTTTGTTGCTCCTTAATGTTGACTTGTCGGAGTCACCTAGTGCAG | 10900 fluorescence intensity (a.u.)
6 | TATTAATTTTGGATTGGAGTGGGTTGGCCTATGAAGAATTCGGAGTCACCTAGTGCAG | 11200 fluorescence intensity (a.u.)
7 | ACACACGCCGCGGCTCTCGTCGGCTTGAGCCGAGCCGATACGGAGTCACCTAGTGCAG | 8120 fluorescence intensity (a.u.)
8 | GTCGACCTTATCTTCAACGCGCCGCATCCAGCTCTCCGTCCGGAGTCACCTAGTGCAG | 8700 fluorescence intensity (a.u.)
9 | TACTGATTTTTCCTTTTTACCGCTGATGATAGTATATACACGGAGTCACCTAGTGCAG | 8780 fluorescence intensity (a.u.)
10 | CTCTTACGTACTTTTTCCGTTTTATATTATAAGTTGTTTTCGGAGTCACCTAGTGCAG | 8980 fluorescence intensity (a.u.)
11 | TCCCCATCCGCCGGCCACCGCAGCTCCGCGCCTCCGCTTCCGGAGTCACCTAGTGCAG | 8100 fluorescence intensity (a.u.)
12 | GCTCTCATTCCCTTGTCTCCAACTCTCCAGTCTCCACCCACGGAGTCACCTAGTGCAG | 9470 fluorescence intensity (a.u.)
13 | GTTGTACACATAGGGATACTCTTTGTCATATGCCCATGCGCGGAGTCACCTAGTGCAG | 9160 fluorescence intensity (a.u.)
14 | TAAATCCACGACCCTTCAGCTATCTATCTCAGCTCCAATCCGGAGTCACCTAGTGCAG | 8170 fluorescence intensity (a.u.)
15 | GTGTGTGAATGACAAACGGGTCCCATGTATATGTTTTTAACGGAGTCACCTAGTGCAG | 8860 fluorescence intensity (a.u.)
16 | AAACCTCTTGACCCACACGATTCTTTCTATATATACCATACGGAGTCACCTAGTGCAG | 9280 fluorescence intensity (a.u.)
17 | TCTGATTTTACGGTTGGGGAACGATTTTGTAACTGGATGACGGAGTCACCTAGTGCAG | 8300 fluorescence intensity (a.u.)
18 | TTGTTTCGAGCCAGGGTTTCGTTATGGTCTTGTATTTGCCCGGAGTCACCTAGTGCAG | 8160 fluorescence intensity (a.u.)
19 | GCTATTTATCTCATATGATGTCTTGGATGTTGTGTAGAAACGGAGTCACCTAGTGCAG | 9490 fluorescence intensity (a.u.)
20 | GGCCACCACCTCGATGCTGACTCCTCTGTTCCGTCAACACCGGAGTCACCTAGTGCAG | 9780 fluorescence intensity (a.u.)
21 | TACAGAGCTGGACGTTGCCATTACTATCTCATTGCCTTGACGGAGTCACCTAGTGCAG | 9370 fluorescence intensity (a.u.)
22 | TGTCACCGGCTTCATGTCCTCGATCGAGCCATCATCTCTTCGGAGTCACCTAGTGCAG | 11000 fluorescence intensity (a.u.)
23 | CAGCTTACTGTTTTTCCTCATCGCAACCATTATTAAGACTCGGAGTCACCTAGTGCAG | 8540 fluorescence intensity (a.u.)
24 | GTCTTCCTAGGCTTTCTCTTTCAGCTCGATCGATCCACAGCGGAGTCACCTAGTGCAG | 9440 fluorescence intensity (a.u.)
25 | ACTATGTTGCTTCTTCCTTAATGCACATATAAATTAATTCCGGAGTCACCTAGTGCAG | 8350 fluorescence intensity (a.u.)
26 | CTTTGGGCCACTAGTCCTCTTCATTGGTCTTTTGTTCCCACGGAGTCACCTAGTGCAG | 12800 fluorescence intensity (a.u.)
27 | CCCGACCTGGATTGACTACTTTGCCTCCAATTAACCCATTCGGAGTCACCTAGTGCAG | 11300 fluorescence intensity (a.u.)

Individual results from above.
Entry for GTTGTACACATAGGGATACTCTTTGTCATATGCCCATGCGCGGAGTCACCTAGTGCAG under binding signal: 9160 fluorescence intensity (a.u.)
Entry for TGTCACCGGCTTCATGTCCTCGATCGAGCCATCATCTCTTCGGAGTCACCTAGTGCAG under binding signal: 11000 fluorescence intensity (a.u.)

Additional entries

Row | Sequence | binding signal
28 | CTCTTCCGCTTCCGCTTCCTTGTTCCTTCCCCTCGAAGCCCGGAGTCACCTAGTGCAG | 9940 fluorescence intensity (a.u.)
29 | TACCACTTCTGCATCACGCCGCTGTTCTTGCCGTGCGCTTCGGAGTCACCTAGTGCAG | 9380 fluorescence intensity (a.u.)
30 | CCAGCCTACTCCACGTGCCATTCACTTGCCATCCGTGGATCGGAGTCACCTAGTGCAG | 8920 fluorescence intensity (a.u.)
31 | CAATCTCTCGCTGTGTCTCTCTCGCGCTCTCCACTAGCACCGGAGTCACCTAGTGCAG | 9100 fluorescence intensity (a.u.)
32 | GCTCACAACTCGGACTTTTATTTACTCCTCCATTGTAAAACGGAGTCACCTAGTGCAG | 9930 fluorescence intensity (a.u.)
33 | ATTACTCCAACTTTACTACCAAATGGTTTATTACGAGTACCGGAGTCACCTAGTGCAG | 8750 fluorescence intensity (a.u.)
34 | ACGTACTCTACTGGCTCGGATTCACTCCCGTCCCGGCCCTCGGAGTCACCTAGTGCAG | 10000 fluorescence intensity (a.u.)
35 | TTCACGATTTCCGTCCTCCCTGTCACATTTTTCGTCGTCTCGGAGTCACCTAGTGCAG | 8150 fluorescence intensity (a.u.)
36 | TGCTCGCCGCGGTTGTTTCGCTAAGCTTCGTCTGGTTCTTCGGAGTCACCTAGTGCAG | 15700 fluorescence intensity (a.u.)
37 | CCCCTCGAAGCCGAATCCGATGGTTCCTCCACCCGTTGACCGGAGTCACCTAGTGCAG | 15500 fluorescence intensity (a.u.)
38 | GGGGTTCTATAGGTGGGCAGAGGGGACAGAAGTGGAGGCTCGGAGTCACCTAGTGCAG | 8420 fluorescence intensity (a.u.)
39 | TCATCACATCAATGCTTTCCTACACACACAAACTTCCAACCGGAGTCACCTAGTGCAG | 8310 fluorescence intensity (a.u.)
40 | TGCTTTGTACGTGTTTAATTTGTTGACTAATGCATGTTTCCGGAGTCACCTAGTGCAG | 10100 fluorescence intensity (a.u.)
41 | CCTGTAGCTCATCCAGCAACGTCTTGTCTTCATTGTTCTTCGGAGTCACCTAGTGCAG | 13000 fluorescence intensity (a.u.)
42 | GCTAGTATATTCATCCAAAATCCTACCTACAGTATTTATTCGGAGTCACCTAGTGCAG | 9810 fluorescence intensity (a.u.)
43 | ATCAATTCATCATATTCTTTCTTTCTAACTGGAGTACACTCGGAGTCACCTAGTGCAG | 9250 fluorescence intensity (a.u.)
44 | GCCGCTCGTCCTCTCCGTTGGCAGATGAGTAAACCGCTTCCGGAGTCACCTAGTGCAG | 8160 fluorescence intensity (a.u.)
45 | GATCTTCTACTGGTAGTCGCCGTGCAATCTCGCGAGTTCCCGGAGTCACCTAGTGCAG | 8720 fluorescence intensity (a.u.)
46 | AGCGCAGGTCTTTTTTTCTTTTTCAATAGCACTGCCTCCACGGAGTCACCTAGTGCAG | 8310 fluorescence intensity (a.u.)
47 | GACACCACCACAACGACGGCACCACCTCGTCCTTGCCATGCGGAGTCACCTAGTGCAG | 9330 fluorescence intensity (a.u.)
48 | GTTCAGCACTTCAGCCCCGCCGCCGTCTCCGCCGCTCAAACGGAGTCACCTAGTGCAG | 11400 fluorescence intensity (a.u.)
49 | CAACACACAACTACTCCCTAGTCTCAAGTCACAACCCACACGGAGTCACCTAGTGCAG | 9070 fluorescence intensity (a.u.)
50 | CCCTATGCTTTTCTGCCCGCGACCGTGCTCGCGCTCCACTCGGAGTCACCTAGTGCAG | 10200 fluorescence intensity (a.u.)
51 | GCGCGCGCCGGCCTCCGTCTTCCTCCGCGGGTGCGCCACCCGGAGTCACCTAGTGCAG | 10400 fluorescence intensity (a.u.)
52 | TTAGCACATGTTTGACCGTTCGTCTTATTCAAAAAATTTACGGAGTCACCTAGTGCAG | 10400 fluorescence intensity (a.u.)
53 | GGGAGAGACCCGAGGCAGGTGGGCGGGGAGGGAATCGATGCGGAGTCACCTAGTGCAG | 12800 fluorescence intensity (a.u.)
54 | TTTGTAGTTTCACAATCAACATATAAGGACTCCGTTTTTTCGGAGTCACCTAGTGCAG | 8700 fluorescence intensity (a.u.)
